# Laboratory results: the supplement of paper PMC3334620
# Whole data set: some 33,000 sequences, median “E-score (-0.5 to 0.5)” near -8e-05, cut for the highest 2% near 0.23. Some of the results follow.
# Target: T1, Nrg2 (UniProt P38082)
# T1 sequence: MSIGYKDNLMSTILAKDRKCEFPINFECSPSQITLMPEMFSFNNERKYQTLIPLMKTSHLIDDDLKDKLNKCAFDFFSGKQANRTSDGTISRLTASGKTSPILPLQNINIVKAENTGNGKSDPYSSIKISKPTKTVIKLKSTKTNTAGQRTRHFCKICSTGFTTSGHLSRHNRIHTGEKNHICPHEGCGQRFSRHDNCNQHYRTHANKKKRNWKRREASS
# Experiment: PBM E-score (8-mer binding enrichment) (E-score (-0.5 to 0.5)); higher = stronger / more preferred TF binding
# Details: protein concentration: 100 nM; construct: GST-full length
# Experimental: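 Universal 'all 10-mer' protein binding microarrays (Agilent AMADID 015681) probed with GST-tagged S. cerevisiae TFs (full-length or DBD) made by in vitro transcription/translation (PURExpress), about 100-200 nM. Bound TF was detected with fluorescent anti-GST. Each ungapped 8-mer (which stands for itself and its reverse complement) is scored by the PBM enrichment score (E-score), a modified Wilcoxon-Mann-Whitney statistic from -0.5 to +0.5, computed with the Universal PBM Analysis Suite. Scale: above 0.35 generally sequence-specific binding.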
row,Sequence,PBM E-score
1,TCGAATAA,0.0617
2,CGCCCAAG,-0.146
3,CTCGGTCC,-0.0232
4,CCAGACAC,-0.16
5,CTAAACTA,0.0285
6,CATCGCCC,-0.127
7,CGTGATAG,-0.0644
8,CATTACCC,-0.115
9,CGGTTACA,0.0955
10,ACCGAGAT,0.114
11,TGATTAAA,0.107
12,ACAGGCTA,-0.14
13,ATTTTAAG,0.0304
14,CATTTTCG,0.152
15,AGGTAACG,-0.0195
16,AAGGGCGT,-0.153
17,CACTCTCG,0.135
18,GGATAGAA,0.146
19,CCTGCGAG,0.0411
20,GCTAGACA,-0.0933
21,GCCCTGCA,0.044
22,CGGCTGTA,-0.165

row,Sequence,PBM E-score
1,AAGATACC,0.206
2,AACCGAAG,0.0159
3,AGACGTAA,0.021
4,CTCCTGAA,0.0373
5,GGCATGGA,-0.0345
6,ATCCATTG,0.128
7,CTGAATGC,-0.139
8,AGCGCCAG,-0.112
9,CCTGTCAA,0.0178
10,ACTCAGGC,0.00622
11,GTTATGTA,-0.0457
12,AGCACCCT,-0.0284
13,ACAGGGCG,0.223
14,CACACTCC,-0.11
15,TCCAGGGA,0.242
16,AAGGGCGA,-0.0222
17,AGGAGCTG,-0.231
18,ATCCCGTG,0.143
19,AACATATC,0.186
20,GCTCGGGA,-0.189
21,CGGGAGAC,-0.141
22,GATACGTA,-0.0119

# Individual results from the list.
# Entry for AGCACCCT under PBM E-score: -0.0284
# Entry for CCTGTCAA under PBM E-score: 0.0178
# Entry for CTCCTGAA under PBM E-score: 0.0373
# Entry for ACAGGGCG under PBM E-score: 0.223
# Entry for AAGATACC under PBM E-score: 0.206

# Remaining list, next part:

row,Sequence,PBM E-score
1,ATCTTTCC,0.0479
2,ATGTGTGA,-0.0527
3,AAGTAATC,0.126
4,ATTCTCGC,-0.163
5,CAAGGTCA,-0.0865
6,AGTGAAAG,-0.0491
7,CCATGCCA,0.0148
8,ATGAACAT,0.181
9,CAAACTAG,-0.0559
10,AGGTGCCC,-0.267
11,CAGGATAG,0.103
12,AGAAAGAG,-0.0521
13,ATCTTGGC,-0.122
14,GAACAGTC,-0.161
15,CCCGTTTC,0.0498
16,CACTCCTA,-0.31
17,GGGTACTA,0.142
18,AACGTTAG,-0.0605
19,CGTGGCGA,-0.0347
20,ATAAAAAA,0.0337
21,TCCGCACA,0.0539
22,CGGTTCAC,-0.195

row,Sequence,PBM E-score
1,CTAAATTC,0.144
2,AAGCGGAT,0.0275
3,AAGACGTA,-0.0582
4,GACTAAGA,-0.146
5,ATGAGGTA,0.0728
6,CTTTTCTA,-0.155
7,AGGTGGAT,-0.0485
8,ACGATGAT,-0.0978
9,ATCAGTTA,-0.0453
10,TAGACTGA,-0.0386
11,CTTCTAAA,-0.0914
12,GTTCGGCA,-0.0204
13,CGATCCAG,0.0385
14,ACTCACCA,0.0937
15,ACGCTGAG,0.0221
16,AAGACCCC,0.0454
17,AAAATACC,0.00056
18,CGAATCAC,0.117
19,TAATGGAA,0.157
20,AAAAGTAT,0.0649
